This passage reports binding results from paper PMC9671360.

Chains of the proteins cited; added tags and fusions are not shown.
UniProt P11802: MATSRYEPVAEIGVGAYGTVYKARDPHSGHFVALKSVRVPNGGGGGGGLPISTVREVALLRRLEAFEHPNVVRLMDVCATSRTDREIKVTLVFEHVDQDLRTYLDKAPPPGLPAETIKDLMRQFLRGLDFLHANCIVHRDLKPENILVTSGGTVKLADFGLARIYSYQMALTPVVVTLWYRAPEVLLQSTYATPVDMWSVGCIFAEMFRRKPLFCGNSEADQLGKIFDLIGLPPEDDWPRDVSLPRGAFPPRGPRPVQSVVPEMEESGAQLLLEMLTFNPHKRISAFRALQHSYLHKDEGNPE
UniProt Q00534: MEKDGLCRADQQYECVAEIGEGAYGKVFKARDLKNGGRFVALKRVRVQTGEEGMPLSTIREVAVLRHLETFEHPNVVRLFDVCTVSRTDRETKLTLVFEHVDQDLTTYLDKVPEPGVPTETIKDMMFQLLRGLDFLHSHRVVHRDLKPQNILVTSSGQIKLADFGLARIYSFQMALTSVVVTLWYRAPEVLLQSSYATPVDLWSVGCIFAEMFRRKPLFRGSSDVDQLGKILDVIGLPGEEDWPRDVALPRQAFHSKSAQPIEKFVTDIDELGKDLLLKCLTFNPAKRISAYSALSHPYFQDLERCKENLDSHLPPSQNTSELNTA
UniProt Q99497: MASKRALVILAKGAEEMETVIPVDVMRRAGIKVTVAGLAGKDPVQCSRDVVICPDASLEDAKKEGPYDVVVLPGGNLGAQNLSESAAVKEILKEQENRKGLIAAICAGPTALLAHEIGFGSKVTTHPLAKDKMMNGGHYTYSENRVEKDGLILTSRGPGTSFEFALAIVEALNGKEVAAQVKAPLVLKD

These are yes or no findings as the source states them, for the method shown. In cells and extracts the contact can be indirect. Some binding calls cover weakened binding; strength is not graded here.

The target in assay [1] is CDK4 (cyclin-dependent kinase 4) in pBiFC-VN173, with Flag (UniProt P11802). As to the kind of experiment: split reporter; BiFC: DJ-1 and CDK plasmids with GFP tag co-transfected in 293 cells; green fluorescence from complementation.
Assay [2] addresses CDK6 in pBiFC-VN173, with Flag (UniProt Q00534). The description is as above.
Assay [3] addresses CDK4 (cyclin-dependent kinase 4) in pBiFC-VN173, with Flag (UniProt P11802). As to the kind of experiment: co-IP; CDK plasmids (CDK1-8) with Flag tag transfected in 293 cells; DJ-1 detected in the precipitate.
In assay [4] the target is Endogenous CDK4 of MG63 and U2OS cells (human (endogenous in MG63 and U2OS)) (UniProt P11802). The assay is described as follows: co-IP; endogenous proteins in MG63 and U2OS lysates (RIPA); antibody or IgG at 4°C overnight, magnetic beads 2 h at room temperature, Western blot.

For “DJ-1 (PARK7), BiFC construct with GFP tag (from UniProt Q99497 1-189)”, the binding result in assay [1] is “binds”; in assay [2], “no binding”.
Take “DJ-1 found with Flag-tagged CDK4 in 293 cells (from UniProt Q99497 1-189)”: the binding result in assay [3] is recorded as “binds”.
Take “Endogenous DJ-1 of MG63 and U2OS cells (from UniProt Q99497 1-189)”: the binding result in assay [4] is on record as “binds”.
